Laboratory results reported in patent publication US20230050773A1 (AstraZeneca / MedImmune, published 2023).
Residue numbers refer to the chain shown, from its start. No constants are given. Whether binding was seen depends on the method and setting. Binding can be weak; no strength is given.

By UniProt entry, the sequences of proteins in these tests, tags left out. Where a name states a change or a piece, a line headed by the entry shows the natural chain unless it says otherwise.
UniProt P15018: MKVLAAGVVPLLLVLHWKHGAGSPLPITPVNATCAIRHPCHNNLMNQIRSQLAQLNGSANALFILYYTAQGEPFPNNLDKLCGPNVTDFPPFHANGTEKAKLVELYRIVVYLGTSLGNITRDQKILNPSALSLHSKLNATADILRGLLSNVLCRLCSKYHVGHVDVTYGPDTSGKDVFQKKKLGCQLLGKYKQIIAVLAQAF

How the values were obtained:
[1] = biological target: recombinant human LIF (Leukemia Inhibitory Factor) (human) (UniProt P15018); assay: ELISA (FIG. 2)
[2] = biological target: recombinant human LIF (Leukemia Inhibitory Factor) (human) (UniProt P15018); assay: single point binding ELISA to HuLIF at 750 nM
[3] = biological target: recombinant human LIF (Leukemia Inhibitory Factor) (human) (UniProt P15018); assay: ELISA on plate-coated recombinant human LIF, anti-human Fc HRP detection
[4] = biological target: recombinant human LIF (Leukemia Inhibitory Factor) (human) (UniProt P15018); assay: blocking ELISA: antibody premixed with biotinylated recombinant human LIF, added to plate-coated human LIFR; blocked partner LIFR

Measured: binding

B1: NB0937 (antibody, V domains shown)
VH: EVQLVESGGGLVQPGGSLRLSCAASGFSFSTDYWMSWVRQAPGKGLEWVSSIYVGTSGDTYYADSVKGRFTISRDNSKNTLYLQMDSLRAEDTAIYYCAGADNPYDYFNLWGQGTLVTVS
VL: DIQMTQSPSSVSASVGDRVTITCRASETISGYLAWYQQKPGKAPKLLIYRASSLESGVPSRFSGSGSGTEFTLTISSLQPDDFATYYCQQGYSYSDTDNVFGGGTKVEIK
notes: Humanized variant of B7 by CDR grafting; also called Clone 937
binds: all assays above

B2: NB0938 (antibody, V domains shown)
VH: B1 VH
VL: B1 VL with V11L, A34N, E55Q, E70D, D81E
notes: Humanized variant of B7 by CDR grafting; also called Clone 938
binds: all assays above

B3: NB0919 (antibody, V domains shown)
VH: QVQLQESGPGLVKPSDTLSLTCTVSGFSFSTDYWWSWIRQPPGKGLEWIGYIYVGTSGDTYYNPSLKSRVTISVDTSKNQFSLKLSSVTAADTAVYYCAGADNPYDYFNLWGQGTLVTVSS
VL: B1 VL with V11L, A34N, E55Q, E70D, D81E
notes: Humanized variant of B7 by CDR grafting; also called Clone 919
binds: all assays above

B4: NB0920 (antibody, V domains shown)
VH: B3 VH
VL: B1 VL with V11L, A43V, S53T, E55Q, E70D, D81E, F83V
notes: Humanized variant of B7 by CDR grafting; also called Clone 920
binds: all assays above
